Reference: paper PMC11054660
No constants are given. Whether binding was seen depends on the method and setting. Binding calls can cover weak binding; strength is not graded here. Tags and fused reporters may be left off the sequences shown.

By UniProt entry, the sequences of proteins in these tests, tags left out. Where a name states a change or a piece, a line headed by the entry shows the natural chain unless it says otherwise.
UniProt P11557: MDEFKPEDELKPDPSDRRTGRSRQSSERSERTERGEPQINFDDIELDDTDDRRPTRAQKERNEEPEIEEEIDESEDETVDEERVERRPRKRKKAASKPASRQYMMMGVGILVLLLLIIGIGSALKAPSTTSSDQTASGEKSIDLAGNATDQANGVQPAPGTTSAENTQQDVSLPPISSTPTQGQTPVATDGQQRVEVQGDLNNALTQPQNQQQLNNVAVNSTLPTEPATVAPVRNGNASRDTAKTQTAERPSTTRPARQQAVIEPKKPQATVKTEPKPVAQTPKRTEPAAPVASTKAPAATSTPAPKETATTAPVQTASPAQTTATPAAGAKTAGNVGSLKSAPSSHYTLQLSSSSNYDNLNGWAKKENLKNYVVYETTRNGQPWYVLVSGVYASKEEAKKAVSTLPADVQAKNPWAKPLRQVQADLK

Target: T1, T4 gp27 with an N-terminal 10xHis-tag (gp27-N), purified (bacteriophage T4) (UniProt P17172)
T1 sequence: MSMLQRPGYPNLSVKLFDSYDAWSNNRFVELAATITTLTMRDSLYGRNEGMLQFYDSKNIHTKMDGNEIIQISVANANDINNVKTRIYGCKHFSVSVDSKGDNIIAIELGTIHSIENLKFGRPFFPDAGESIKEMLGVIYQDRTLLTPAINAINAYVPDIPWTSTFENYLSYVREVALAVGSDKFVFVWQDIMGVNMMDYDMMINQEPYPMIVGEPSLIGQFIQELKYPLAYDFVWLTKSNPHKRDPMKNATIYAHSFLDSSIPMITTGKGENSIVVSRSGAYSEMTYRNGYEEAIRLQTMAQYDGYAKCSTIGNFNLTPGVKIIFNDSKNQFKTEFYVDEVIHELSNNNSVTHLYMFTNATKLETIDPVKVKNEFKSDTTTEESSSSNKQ
Experiment: pull-down; Strep-purified DamX or PpiD incubated with purified gp27-N-His for 15 min at 37 °C; nickel affinity chromatography; flow-through, wash and elution fractions on SDS-PAGE; both purified

Q: With “E. coli DamX with an N-terminal Strep-tag, purified (from UniProt P11557)” as the substance, how does the binding read?
A: Its binding is “binds”.
